The text below walks through data of article PMC6109181.

Sequences of proteins named here, by UniProt entry; tags and fusion partners are left off. Residues count along the entry.
UniProt P58281, residues 88-960: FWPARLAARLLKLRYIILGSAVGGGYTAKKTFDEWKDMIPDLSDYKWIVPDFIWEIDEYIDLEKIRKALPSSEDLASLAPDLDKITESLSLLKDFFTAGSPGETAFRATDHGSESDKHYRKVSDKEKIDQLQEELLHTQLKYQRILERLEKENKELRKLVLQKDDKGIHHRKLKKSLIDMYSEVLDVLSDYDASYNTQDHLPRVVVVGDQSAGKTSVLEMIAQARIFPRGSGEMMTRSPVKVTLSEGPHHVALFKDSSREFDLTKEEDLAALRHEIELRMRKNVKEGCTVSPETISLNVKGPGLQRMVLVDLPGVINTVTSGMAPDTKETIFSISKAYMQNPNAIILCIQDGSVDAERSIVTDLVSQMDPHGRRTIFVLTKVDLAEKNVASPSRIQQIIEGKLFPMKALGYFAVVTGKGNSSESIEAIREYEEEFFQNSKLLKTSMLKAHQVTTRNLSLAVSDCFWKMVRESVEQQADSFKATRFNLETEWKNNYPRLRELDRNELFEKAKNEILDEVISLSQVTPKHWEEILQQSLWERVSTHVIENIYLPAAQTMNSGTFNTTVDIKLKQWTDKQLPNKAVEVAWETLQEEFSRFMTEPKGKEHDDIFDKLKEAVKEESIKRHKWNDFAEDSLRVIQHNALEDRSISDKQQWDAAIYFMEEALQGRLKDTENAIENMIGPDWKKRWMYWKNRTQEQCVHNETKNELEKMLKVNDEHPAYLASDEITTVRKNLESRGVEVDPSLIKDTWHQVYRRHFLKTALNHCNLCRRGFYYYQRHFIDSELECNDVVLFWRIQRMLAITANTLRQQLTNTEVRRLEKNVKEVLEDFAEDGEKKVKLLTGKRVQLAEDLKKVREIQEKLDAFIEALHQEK
UniProt P56480, residues 47-529: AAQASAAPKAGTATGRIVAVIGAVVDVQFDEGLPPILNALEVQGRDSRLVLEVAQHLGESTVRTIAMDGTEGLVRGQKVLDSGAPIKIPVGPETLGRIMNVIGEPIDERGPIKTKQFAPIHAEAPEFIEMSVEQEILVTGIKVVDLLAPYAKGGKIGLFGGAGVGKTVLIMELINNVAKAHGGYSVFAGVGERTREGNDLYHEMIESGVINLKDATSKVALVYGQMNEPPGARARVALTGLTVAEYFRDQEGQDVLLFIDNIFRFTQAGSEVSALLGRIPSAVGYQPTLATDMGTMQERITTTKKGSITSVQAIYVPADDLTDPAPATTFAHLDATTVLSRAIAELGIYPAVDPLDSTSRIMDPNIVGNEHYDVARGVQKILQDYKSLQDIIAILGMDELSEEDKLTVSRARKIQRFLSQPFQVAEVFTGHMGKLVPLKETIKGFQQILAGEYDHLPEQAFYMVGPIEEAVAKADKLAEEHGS

Assay [1] deals with Optic atrophy 1 (OPA1) (mouse (endogenous in mitochondria of MAFs or mouse heart)) (UniProt P58281). Description: cross-linking; purified mitochondria (methods: mitochondrial extracts, 50 µg) treated with 10 mM of the zero-length crosslinker EDC for 30 min at 37 °C in PBS, quenched with 15 mM DTT; SDS-PAGE and immunoblot for OPA1 and ATP5B. On the technique in general: Immunoblotting shows a protein as a band on a membrane.

For assay [2] the target is unchanged. Description: co-IP; mitochondrial lysates (150 mM NaCl, 25 mM Tris-Cl pH 7.4, 1 mM EDTA, 5% glycerol, 0.1% Triton X-100) immunoprecipitated overnight at 4 °C with antibodies coupled to Protein A agarose beads; SDS-PAGE and immunoblot.
The target of assay [3] is ATP5B (ATP synthase β-subunit) (mouse (endogenous in mitochondria of MAFs)) (UniProt P56480). The assay is described as above.

These are yes or no findings as the source states them, for the method shown. In cells and extracts the contact can be indirect. Some results given as binding are weak or reduced against the parent protein; the word gives no strength.

As for “ATP5B (ATP synthase β-subunit) (from UniProt P56480 47-529)”, the binding entry in assay [1] and in assay [2] was “binds” in each case.

Consider “Optic atrophy 1 (OPA1) (from UniProt P58281 88-960)”, for which the binding result in assay [3] was “binds”.
